Results are given in words; binding and its absence hold for the method and conditions named. Binding seen in cells or lysates may run through a third protein. Some binding calls cover weakened binding; strength is not graded here. Tags and fused reporters may be left off the sequences shown.
Target: T1, HA-tagged ARR12 (Arabidopsis) (UniProt P62598)
T1 sequence (looked up): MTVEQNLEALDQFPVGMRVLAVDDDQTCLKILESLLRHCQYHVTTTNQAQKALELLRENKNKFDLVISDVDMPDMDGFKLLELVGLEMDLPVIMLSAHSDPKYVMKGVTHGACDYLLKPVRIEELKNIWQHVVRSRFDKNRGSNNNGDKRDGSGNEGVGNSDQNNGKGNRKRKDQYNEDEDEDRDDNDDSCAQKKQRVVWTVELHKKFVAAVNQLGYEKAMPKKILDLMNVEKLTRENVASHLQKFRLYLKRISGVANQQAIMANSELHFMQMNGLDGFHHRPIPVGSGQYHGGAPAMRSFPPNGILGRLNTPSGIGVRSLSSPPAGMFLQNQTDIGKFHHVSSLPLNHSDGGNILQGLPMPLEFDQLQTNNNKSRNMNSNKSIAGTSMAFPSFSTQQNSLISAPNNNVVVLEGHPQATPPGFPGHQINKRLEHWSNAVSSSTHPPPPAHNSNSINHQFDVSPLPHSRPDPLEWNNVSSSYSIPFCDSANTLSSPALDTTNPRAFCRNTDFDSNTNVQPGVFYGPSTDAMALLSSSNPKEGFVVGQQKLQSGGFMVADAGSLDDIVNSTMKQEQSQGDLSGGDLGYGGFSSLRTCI
Test: co-immunoprecipitation with anti-GFP antibody from co-transfected Arabidopsis protoplasts

- binding: binds
B1: OsKMD2-GFP (protein, not shown: large carriers; small tags and cut ends)
chain: MGYNELIPGLPEEVARECLIRVGFDQLPAVRRISRQWKAEVESPAYNRLRKAEGLARPALALVQARRELAEAGPAADKQSSAGGVPGNSYRMVLLDPAEGRWTPLPEVGGASGSLPLFCQVAAVDGGVEGRKRLVVVGGWDPETWAPTDSVLVYDFLTGAWRRGAAMPGPRRSFFACAAVGGKVFVAGGHDEEKNALRSALAYDPDADAWAALPDMAEERDEPRGLCVDGKFLVVGGYPTPAQGRFVGSAEWFDPATSTWSAVQEGFVDDGACPRTCSAAPEAGDRMYMLRDGHLVARHGAISSAPAAWRPVAPVPEDARTAAAVSVIPDGRVVVIGSDCHGGDQTVYTLREEAGKPASWARAPAPPEFSGHVQAACLLEI

From patent publication US20160289698A1
